No constants are given. Whether binding was seen depends on the method and setting.
How the values were obtained:
[1] = biological target: bovine seroalbumine (BSA, Sigma) (bovine) (UniProt P02769); experiment: condition: periplasm diluted 1:5, 1:10 and 1:20; antigen coated at 10 µg/mL; ELISA on coated polyvinyl plates, detection with Mab 9E10
[2] = biological target: ovalbumine (UniProt P01012); experiment: as above

By UniProt entry, the sequences of proteins in these tests, tags left out. Residues count along the entry.
UniProt P02769, residues 25-607: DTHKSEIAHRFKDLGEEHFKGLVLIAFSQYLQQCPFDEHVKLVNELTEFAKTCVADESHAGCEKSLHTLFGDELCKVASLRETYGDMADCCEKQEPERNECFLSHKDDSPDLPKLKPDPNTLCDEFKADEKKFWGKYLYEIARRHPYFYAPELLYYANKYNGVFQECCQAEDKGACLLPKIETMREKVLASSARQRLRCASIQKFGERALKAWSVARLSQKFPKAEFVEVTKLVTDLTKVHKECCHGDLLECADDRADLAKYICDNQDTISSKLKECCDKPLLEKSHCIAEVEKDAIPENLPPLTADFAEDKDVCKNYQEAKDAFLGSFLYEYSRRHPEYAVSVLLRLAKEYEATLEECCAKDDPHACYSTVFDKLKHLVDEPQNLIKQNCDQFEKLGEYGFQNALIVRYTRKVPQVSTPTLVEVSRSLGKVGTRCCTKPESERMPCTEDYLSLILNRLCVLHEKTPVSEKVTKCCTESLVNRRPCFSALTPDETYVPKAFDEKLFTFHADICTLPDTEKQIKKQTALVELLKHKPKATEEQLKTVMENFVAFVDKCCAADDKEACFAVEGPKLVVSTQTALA
UniProt P01012, residues 2-386: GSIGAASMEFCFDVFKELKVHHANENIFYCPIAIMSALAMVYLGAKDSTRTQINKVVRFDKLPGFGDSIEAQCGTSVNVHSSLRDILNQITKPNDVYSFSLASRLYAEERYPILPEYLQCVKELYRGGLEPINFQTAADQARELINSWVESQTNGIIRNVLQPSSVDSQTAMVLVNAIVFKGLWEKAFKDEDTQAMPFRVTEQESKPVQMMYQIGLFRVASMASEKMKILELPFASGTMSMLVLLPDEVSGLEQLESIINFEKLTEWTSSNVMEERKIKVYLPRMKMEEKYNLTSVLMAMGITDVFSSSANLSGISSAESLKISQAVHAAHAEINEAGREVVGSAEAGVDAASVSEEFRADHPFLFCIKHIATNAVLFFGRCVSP

binding [1]: no binding
binding [2]: no binding
B1: monovalent scFv fragment (clone pJG1m-25), produced in E. coli (scFv, not shown: small tags and cut ends)
scFv: EVKLVESGGDLVKPGGSLKFSCAASGFPFNRYAMSWVRQTPEKRLEWVAFISSDGIAYYADSVKGRFTISRDNARNILYLQMSSLRSEDTAMYYCARVYYYGSSYFDYWGQGTTLTVSSEGKSSGSGSESKVDDIVMTQSPKFMSTSVGDRVSVTCKASQNAGTNVAWYQQKPGQSPKALIYSASSRNSGVPDRITGSGSGTDFTLTISNVQSEDLAEYFCQQYNSYPLVTFGAGTKLELK
